For this assay, the target named is soluble human type I IL-1R (human) (UniProt P14778). As to the kind of experiment: Affinity chromatography on immobilised receptor; eluted at low pH.

Chains of the proteins cited; added tags and fusions are not shown. Lines headed by an entry give the natural chain unless they say otherwise; changes in a name come on top. Residues count along the entry.
UniProt P14778: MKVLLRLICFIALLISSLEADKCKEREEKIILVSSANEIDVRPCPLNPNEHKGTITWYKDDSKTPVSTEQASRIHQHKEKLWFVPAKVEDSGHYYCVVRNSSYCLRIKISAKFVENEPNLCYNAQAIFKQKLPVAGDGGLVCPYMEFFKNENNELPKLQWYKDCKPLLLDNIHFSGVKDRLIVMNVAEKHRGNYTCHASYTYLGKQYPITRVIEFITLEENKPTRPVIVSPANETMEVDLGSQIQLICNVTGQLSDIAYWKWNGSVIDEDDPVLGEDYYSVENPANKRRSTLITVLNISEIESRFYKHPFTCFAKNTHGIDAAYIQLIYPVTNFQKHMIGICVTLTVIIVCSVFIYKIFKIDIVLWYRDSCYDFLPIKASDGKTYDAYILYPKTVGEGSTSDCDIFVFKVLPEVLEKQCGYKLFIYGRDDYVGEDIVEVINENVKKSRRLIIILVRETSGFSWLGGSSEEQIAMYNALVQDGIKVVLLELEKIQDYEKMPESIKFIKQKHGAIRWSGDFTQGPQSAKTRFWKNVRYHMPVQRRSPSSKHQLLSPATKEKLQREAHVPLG
UniProt P18510, residues 26-177: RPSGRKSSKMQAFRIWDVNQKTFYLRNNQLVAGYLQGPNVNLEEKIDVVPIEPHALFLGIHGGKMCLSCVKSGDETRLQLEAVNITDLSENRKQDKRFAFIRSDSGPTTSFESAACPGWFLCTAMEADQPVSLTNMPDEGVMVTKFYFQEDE

The values below come from patent US6521740 (IMMUNEX, dated 2003).

Results are given in words; binding and its absence hold for the method and conditions named. Some entries that bind do so weakly or less than the wild type.

Turning to “recombinant human IL-1 receptor antagonist (IL-1ra) (from UniProt P18510 26-177) (ligand)”, the binding entry is recorded as “binds”.
